Laboratory results taken from publication PMC11686847.
Where a chain is given by its changes, count along the chain named. Read-outs that look alike come from different tables or passages of the source. These are yes or no findings as the source states them, for the method shown. Binding seen in cells or lysates may run through a third protein. Some results given as binding are weak or reduced against the parent protein; the word gives no strength. Sequences can lack the tags named with a protein. One block for each molecule: values may come before it.

The chains behind the UniProt entries cited, without tags or fusion partners.
UniProt Q9H1A4: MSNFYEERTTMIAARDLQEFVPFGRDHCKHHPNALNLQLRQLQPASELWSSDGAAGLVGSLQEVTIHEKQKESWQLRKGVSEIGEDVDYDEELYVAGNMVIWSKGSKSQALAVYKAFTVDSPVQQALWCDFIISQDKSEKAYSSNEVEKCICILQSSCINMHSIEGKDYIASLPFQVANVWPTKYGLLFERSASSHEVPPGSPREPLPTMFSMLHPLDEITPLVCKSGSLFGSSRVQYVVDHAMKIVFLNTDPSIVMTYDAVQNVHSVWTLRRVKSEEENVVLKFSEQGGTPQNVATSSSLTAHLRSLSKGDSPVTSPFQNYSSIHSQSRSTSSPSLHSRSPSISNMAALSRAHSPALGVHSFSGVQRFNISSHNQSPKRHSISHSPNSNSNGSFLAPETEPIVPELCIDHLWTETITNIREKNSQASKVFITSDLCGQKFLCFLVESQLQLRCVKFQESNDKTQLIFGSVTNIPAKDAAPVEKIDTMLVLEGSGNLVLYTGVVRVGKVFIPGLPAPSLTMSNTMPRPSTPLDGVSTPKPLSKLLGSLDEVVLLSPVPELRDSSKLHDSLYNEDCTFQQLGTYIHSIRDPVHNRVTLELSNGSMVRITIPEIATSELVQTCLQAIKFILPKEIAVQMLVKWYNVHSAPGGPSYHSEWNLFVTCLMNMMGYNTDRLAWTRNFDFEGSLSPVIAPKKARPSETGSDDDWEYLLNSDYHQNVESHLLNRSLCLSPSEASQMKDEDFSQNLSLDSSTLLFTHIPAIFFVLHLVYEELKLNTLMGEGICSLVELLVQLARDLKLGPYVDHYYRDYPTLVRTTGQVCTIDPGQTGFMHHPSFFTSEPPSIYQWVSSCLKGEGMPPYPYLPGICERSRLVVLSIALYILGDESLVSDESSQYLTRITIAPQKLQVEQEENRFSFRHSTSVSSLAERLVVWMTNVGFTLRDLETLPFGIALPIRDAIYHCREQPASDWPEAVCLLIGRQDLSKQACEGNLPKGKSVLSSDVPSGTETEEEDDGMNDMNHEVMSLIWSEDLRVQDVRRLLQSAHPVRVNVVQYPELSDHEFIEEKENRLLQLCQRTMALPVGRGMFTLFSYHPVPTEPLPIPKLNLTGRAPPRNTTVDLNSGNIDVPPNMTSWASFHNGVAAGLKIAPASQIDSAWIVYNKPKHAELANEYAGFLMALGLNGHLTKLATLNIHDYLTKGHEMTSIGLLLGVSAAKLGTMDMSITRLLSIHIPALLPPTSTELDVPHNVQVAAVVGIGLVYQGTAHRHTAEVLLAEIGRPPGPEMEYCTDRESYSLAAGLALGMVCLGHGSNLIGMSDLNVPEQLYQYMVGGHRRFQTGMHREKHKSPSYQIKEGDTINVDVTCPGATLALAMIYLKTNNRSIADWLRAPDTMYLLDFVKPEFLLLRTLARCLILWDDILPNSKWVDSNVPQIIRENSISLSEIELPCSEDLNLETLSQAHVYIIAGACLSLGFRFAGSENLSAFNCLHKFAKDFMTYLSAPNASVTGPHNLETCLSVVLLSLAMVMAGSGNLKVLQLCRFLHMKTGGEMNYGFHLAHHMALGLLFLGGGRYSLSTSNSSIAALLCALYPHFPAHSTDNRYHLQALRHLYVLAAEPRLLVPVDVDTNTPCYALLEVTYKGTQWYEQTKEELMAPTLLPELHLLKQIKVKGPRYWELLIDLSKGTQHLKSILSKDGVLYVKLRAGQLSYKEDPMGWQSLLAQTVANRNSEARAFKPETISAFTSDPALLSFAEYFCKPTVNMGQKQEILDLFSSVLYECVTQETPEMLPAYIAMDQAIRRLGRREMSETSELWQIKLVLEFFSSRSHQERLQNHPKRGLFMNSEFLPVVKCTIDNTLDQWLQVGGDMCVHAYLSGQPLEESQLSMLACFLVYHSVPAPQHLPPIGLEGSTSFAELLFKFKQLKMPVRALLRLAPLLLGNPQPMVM
UniProt Q13257: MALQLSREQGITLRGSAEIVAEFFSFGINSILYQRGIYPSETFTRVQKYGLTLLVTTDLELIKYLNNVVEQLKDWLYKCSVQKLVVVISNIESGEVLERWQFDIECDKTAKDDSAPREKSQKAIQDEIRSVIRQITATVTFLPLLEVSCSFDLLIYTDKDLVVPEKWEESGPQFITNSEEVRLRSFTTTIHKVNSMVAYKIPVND
UniProt Q9BZB8: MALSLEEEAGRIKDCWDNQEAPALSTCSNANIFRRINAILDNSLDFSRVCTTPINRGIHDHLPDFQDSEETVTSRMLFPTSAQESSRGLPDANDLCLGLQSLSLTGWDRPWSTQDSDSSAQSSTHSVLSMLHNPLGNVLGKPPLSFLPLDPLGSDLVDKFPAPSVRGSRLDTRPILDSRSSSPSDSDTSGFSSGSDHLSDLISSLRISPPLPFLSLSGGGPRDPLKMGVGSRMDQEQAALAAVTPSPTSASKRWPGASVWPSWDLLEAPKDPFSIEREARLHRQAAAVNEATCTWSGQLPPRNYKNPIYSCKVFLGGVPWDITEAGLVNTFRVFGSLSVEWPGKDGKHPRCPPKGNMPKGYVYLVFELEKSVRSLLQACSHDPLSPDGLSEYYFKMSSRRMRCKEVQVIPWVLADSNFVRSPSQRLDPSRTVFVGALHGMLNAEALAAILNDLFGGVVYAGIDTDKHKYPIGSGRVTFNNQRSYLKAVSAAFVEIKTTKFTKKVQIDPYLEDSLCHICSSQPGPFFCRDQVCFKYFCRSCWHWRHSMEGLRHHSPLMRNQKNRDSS

Legend:
[1] = target: T1, FLAG-tagged wild-type PATL2 (human) (UniProt C9JE40); assay: co-IP; as a2 (anti-FLAG, 293T cells expressing FLAG-PATL2) with 50 ng/ul RNase A treatment
T1 sequence: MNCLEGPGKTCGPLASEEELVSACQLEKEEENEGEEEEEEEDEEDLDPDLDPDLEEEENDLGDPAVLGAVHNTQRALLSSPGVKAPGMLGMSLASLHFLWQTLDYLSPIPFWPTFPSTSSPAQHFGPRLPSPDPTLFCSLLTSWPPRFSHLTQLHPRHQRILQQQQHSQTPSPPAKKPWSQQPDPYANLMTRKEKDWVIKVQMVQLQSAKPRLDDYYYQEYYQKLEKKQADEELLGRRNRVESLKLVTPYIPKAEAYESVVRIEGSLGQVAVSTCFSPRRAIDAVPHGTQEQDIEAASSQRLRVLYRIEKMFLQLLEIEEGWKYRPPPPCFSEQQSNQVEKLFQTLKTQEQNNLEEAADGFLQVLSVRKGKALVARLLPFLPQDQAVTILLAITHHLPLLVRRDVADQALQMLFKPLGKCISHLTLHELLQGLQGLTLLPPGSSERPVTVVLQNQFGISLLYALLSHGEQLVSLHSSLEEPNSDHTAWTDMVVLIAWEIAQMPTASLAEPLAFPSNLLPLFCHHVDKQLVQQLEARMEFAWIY

[2] = target: T2, FLAG-tagged PATL2 L424S (human) (UniProt C9JE40); assay: co-IP; FLAG-PATL2 (WT or mutants) transfected into 293T cells; FLAG-M2 magnetic beads overnight at 4 °C; blots for endogenous CDC23, MAD2L1, APC1, TUT7; without RNase A
T2 sequence: T1 sequence with L424S

[3] = target: T3, FLAG-tagged PATL2 V401F/R402W (human) (UniProt C9JE40); assay: as above
T3 sequence: T1 sequence with V401F, R402W

[4] = target: T1, FLAG-tagged wild-type PATL2 (human); assay: as above
[5] = target: T4, HA-tagged wild-type PATL2 expressed in human oocytes (human) (UniProt C9JE40); assay: proximity ligation; human oocytes with or without microinjection of HA-PATL2 cRNA; antibodies against HA and the endogenous partner (TUT7 or CPEB1); PLA spots counted
T4 sequence: T1 sequence

[6] = target: T5, HA-tagged wild-type PATL2 (human) (UniProt C9JE40); assay: co-IP; 293T cells with ectopic HA-PATL2 or PATL2 variants; blots with anti-HA and anti-TUT7 (endogenous TUT7)
T5 sequence: T1 sequence

[7] = target: T3, FLAG-tagged PATL2 V401F/R402W (human); assay: co-IP; FLAG-PATL2 (WT or mutants) transfected into 293T cells; FLAG-M2 magnetic beads overnight at 4 °C; blots for endogenous CDC23, MAD2L1, APC1, TUT7; without RNase A; remark: listed apart in the source
[8] = target: T1, FLAG-tagged wild-type PATL2 (human); assay: as above; remark: listed apart in the source
[9] = target: T4, HA-tagged wild-type PATL2 expressed in human oocytes (human); assay: proximity ligation; human oocytes with or without microinjection of HA-PATL2 cRNA; antibodies against HA and the endogenous partner (TUT7 or CPEB1); PLA spots counted; remark: listed apart in the source

Molecule: APC1 (endogenous) (from UniProt Q9H1A4 1-1944)
- binding [2]: binds
- binding [3]: binds
- binding [4]: binds

B1: TUT7 (endogenous, 293T cells) (enzyme, UniProt Q5VYS8 1-1495)
chain: MGDTAKPYFVKRTKDRGTMDDDDFRRGHPQQDYLIIDDHAKGHGSKMEKGLQKKKITPGNYGNTPRKGPCAVSSNPYAFKNPIYSQPAWMNDSHKDQSKRWLSDEHTGNSDNWREFKPGPRIPVINRQRKDSFQENEDGYRWQDTRGCRTVRRLFHKDLTSLETTSEMEAGSPENKKQRSRPRKPRKTRNEENEQDGDLEGPVIDESVLSTKELLGLQQAEERLKRDCIDRLKRRPRNYPTAKYTCRLCDVLIESIAFAHKHIKEKRHKKNIKEKQEEELLTTLPPPTPSQINAVGIAIDKVVQEFGLHNENLEQRLEIKRIMENVFQHKLPDCSLRLYGSSCSRLGFKNSDVNIDIQFPAIMSQPDVLLLVQECLKNSDSFIDVDADFHARVPVVVCREKQSGLLCKVSAGNENACLTTKHLTALGKLEPKLVPLVIAFRYWAKLCSIDRPEEGGLPPYVFALMAIFFLQQRKEPLLPVYLGSWIEGFSLSKLGNFNLQDIEKDVVIWEHTDSAAGDTGITKEEAPRETPIKRGQVSLILDVKHQPSVPVGQLWVELLRFYALEFNLADLVISIRVKELVSRELKDWPKKRIAIEDPYSVKRNVARTLNSQPVFEYILHCLRTTYKYFALPHKITKSSLLKPLNAITCISEHSKEVINHHPDVQTKDDKLKNSVLAQGPGATSSAANTCKVQPLTLKETAESFGSPPKEEMGNEHISVHPENSDCIQADVNSDDYKGDKVYHPETGRKNEKEKVGRKGKHLLTVDQKRGEHVVCGSTRNNESESTLDLEGFQNPTAKECEGLATLDNKADLDGESTEGTEELEDSLNHFTHSVQGQTSEMIPSDEEEEDDEEEEEEEEPRLTINQREDEDGMANEDELDNTYTGSGDEDALSEEDDELGEAAKYEDVKECGKHVERALLVELNKISLKEENVCEEKNSPVDQSDFFYEFSKLIFTKGKSPTVVCSLCKREGHLKKDCPEDFKRIQLEPLPPLTPKFLNILDQVCIQCYKDFSPTIIEDQAREHIRQNLESFIRQDFPGTKLSLFGSSKNGFGFKQSDLDVCMTINGLETAEGLDCVRTIEELARVLRKHSGLRNILPITTAKVPIVKFFHLRSGLEVDISLYNTLALHNTRLLSAYSAIDPRVKYLCYTMKVFTKMCDIGDASRGSLSSYAYTLMVLYFLQQRNPPVIPVLQEIYKGEKKPEIFVDGWNIYFFDQIDELPTYWSECGKNTESVGQLWLGLLRFYTEEFDFKEHVISIRRKSLLTTFKKQWTSKYIVIEDPFDLNHNLGAGLSRKMTNFIMKAFINGRRVFGIPVKGFPKDYPSKMEYFFDPDVLTEGELAPNDRCCRICGKIGHFMKDCPMRRKVRRRRDQEDALNQRYPENKEKRSKEDKEIHNKYTEREVSTKEDKPIQCTPQKAKPMRAAADLGREKILRPPVEKWKRQDDKDLREKRCFICGREGHIKKECPQFKGSSGSLSSKYMTQGKASAKRTQQES
- binding [6]: binds
- binding [7]: binds
- binding [8]: binds

B2: TUT7 (endogenous, human oocytes) (enzyme, UniProt Q5VYS8 1-1495)
chain: B1 chain
- binding [9]: binds

More lines, now with the values ahead:

- binding [1]: binds
- binding [2]: binds
- binding [3]: binds
- binding [4]: binds
Molecule: MAD2L1 (endogenous) (from UniProt Q13257 1-205)

- binding [5]: binds
Molecule: CPEB1 (endogenous, human oocytes) (from UniProt Q9BZB8 1-566)
